Publication PMC3264566, “Structure-Function Studies of DNA Binding Domain of Response Regulator KdpE Reveals Equal Affinity Interactions at DNA Half-Sites”
These are yes or no findings as the source states them, for the method shown.

Legend:
[1] = molecular target: DNA binding domain of E. coli response regulator KdpE (KdpEDBD) (E. coli) (UniProt P21866); assay: AUC; sedimentation velocity, 50,000 rpm, 20°C, 50 mM HEPES pH 7.4, 150 mM KCl, 1 mM EDTA; KdpEDBD alone at 21, 42 and 84 µM; both purified
[2] = molecular target: DNA binding domain of E. coli response regulator KdpE (KdpEDBD) (E. coli) (UniProt P21866); assay: SEC; analytical size-exclusion chromatography, 10/300 GL Superdex 200, 10 mM HEPES pH 7.5, 150 mM KCl; elution compared with protein standards of known mass; both purified

- binding [1]: no binding (tested: 84 µM)
- binding [2]: no binding
B1: DNA binding domain of E. coli response regulator KdpE (KdpEDBD) (domain or fragment, UniProt P21866 124-225)
chain: APDPLVKFSDVTVDLAARVIHRGEEEVHLTPIEFRLLAVLLNNAGKVLTQRQLLNQVWGPNAVEHSHYLRIYMGHLRQKLEQDPARPRHFITETGIGYRFML
